Test results taken from paper PMC12603276.
These are yes or no findings as the source states them, for the method shown. In cells and extracts the contact can be indirect. A yes stands for co-enrichment or nearness to the bait. Other partners may have been found.

Sequences of proteins named here, by UniProt entry; tags and fusion partners are left off.
UniProt P00558: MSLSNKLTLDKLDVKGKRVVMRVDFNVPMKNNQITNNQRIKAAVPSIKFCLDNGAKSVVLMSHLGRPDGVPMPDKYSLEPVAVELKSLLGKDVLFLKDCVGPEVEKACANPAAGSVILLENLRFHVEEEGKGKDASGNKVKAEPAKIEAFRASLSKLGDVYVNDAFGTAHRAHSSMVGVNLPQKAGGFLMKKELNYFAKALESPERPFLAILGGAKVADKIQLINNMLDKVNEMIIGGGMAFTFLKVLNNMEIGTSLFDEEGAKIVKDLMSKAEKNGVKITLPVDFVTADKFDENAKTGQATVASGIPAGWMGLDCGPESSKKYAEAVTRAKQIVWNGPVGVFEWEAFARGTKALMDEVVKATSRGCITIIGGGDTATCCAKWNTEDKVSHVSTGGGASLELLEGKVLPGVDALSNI

Target: phosphoglycerate kinase 1 (PGK1), endogenous (human (endogenous in PANC-1 and AsPC-1)) (UniProt P00558)
Experiment: affinity purification with mass spectrometry; PGK1 immunoprecipitated with an anti-PGK1 antibody from PANC-1 cells collected 30 min after IR; immunoprecipitates analysed by mass spectrometry

B1: microrchidia CW-type zinc finger 2 (MORC2), endogenous (enzyme, UniProt Q9Y6X9 1-1032)
chain: MAFTNYSSLNRAQLTFEYLHTNSTTHEFLFGALAELVDNARDADATRIDIYAERREDLRGGFMLCFLDDGAGMDPSDAASVIQFGKSAKRTPESTQIGQYGNGLKSGSMRIGKDFILFTKKEDTMTCLFLSRTFHEEEGIDEVIVPLPTWNARTREPVTDNVEKFAIETELIYKYSPFRTEEEVMTQFMKIPGDSGTLVIIFNLKLMDNGEPELDIISNPRDIQMAETSPEGTKPERRSFRAYAAVLYIDPRMRIFIHGHKVQTKRLSCCLYKPRMYKYTSSRFKTRAEQEVKKAEHVARIAEEKAREAESKARTLEVRLGGDLTRDSRVMLRQVQNRAITLRREADVKKRIKEAKQRALKEPKELNFVFGVNIEHRDLDGMFIYNCSRLIKMYEKVGPQLEGGMACGGVVGVVDVPYLVLEPTHNKQDFADAKEYRHLLRAMGEHLAQYWKDIAIAQRGIIKFWDEFGYLSANWNQPPSSELRYKRRRAMEIPTTIQCDLCLKWRTLPFQLSSVEKDYPDTWVCSMNPDPEQDRCEASEQKQKVPLGTFRKDMKTQEEKQKQLTEKIRQQQEKLEALQKTTPIRSQADLKKLPLEVTTRPSTEEPVRRPQRPRSPPLPAVIRNAPSRPPSLPTPRPASQPRKAPVISSTPKLPALAAREEASTSRLLQPPEAPRKPANTLVKTASRPAPLVQQLSPSLLPNSKSPREVPSPKVIKTPVVKKTESPIKLSPATPSRKRSVAVSDEEEVEEEAERRKERCKRGRFVVKEEKKDSNELSDSAGEEDSADLKRAQKDKGLHVEVRVNREWYTGRVTAVEVGKHVVRWKVKFDYVPTDTTPRDRWVEKGSEDVRLMKPPSPEHQSLDTQQEGGEEEVGPVAQQAIAVAEPSTSECLRIEPDTTALSTNHETIDLLVQILRNCLRYFLPPSFPISKKQLSAMNSDELISFPLKEYFKQYEVGLQNLCNSYQSRADSRAKASEESLRTSERKLRETEEKLQKLRTNIVALLQKVQEDIDINTDDELDAYIEDLITKGD
binding: binds
